Assay results: PubChem BioAssay AID720504 (National Center for Advancing Translational Sciences (NCATS), 2013)
In all, about 360,000 compounds went through this assay and about 10,000 (2.8%) were called active. This list was built around the results that the source calls inconclusive (neither active nor inactive); the mix of calls is not that of the screen. The call rests on the fitted dose curve; in most records, active means well fitted inhibition curve with a large enough effect; inconclusive means small, poorly fitted or top-dose-only effect; inactive means flat fitted curve, though single readings scatter. Where the call is inconclusive, the potency comes from a doubtful curve fit.

Sequences of proteins named here, by UniProt entry; tags and fusion partners are left off.
UniProt P53350, whole entry, looked up: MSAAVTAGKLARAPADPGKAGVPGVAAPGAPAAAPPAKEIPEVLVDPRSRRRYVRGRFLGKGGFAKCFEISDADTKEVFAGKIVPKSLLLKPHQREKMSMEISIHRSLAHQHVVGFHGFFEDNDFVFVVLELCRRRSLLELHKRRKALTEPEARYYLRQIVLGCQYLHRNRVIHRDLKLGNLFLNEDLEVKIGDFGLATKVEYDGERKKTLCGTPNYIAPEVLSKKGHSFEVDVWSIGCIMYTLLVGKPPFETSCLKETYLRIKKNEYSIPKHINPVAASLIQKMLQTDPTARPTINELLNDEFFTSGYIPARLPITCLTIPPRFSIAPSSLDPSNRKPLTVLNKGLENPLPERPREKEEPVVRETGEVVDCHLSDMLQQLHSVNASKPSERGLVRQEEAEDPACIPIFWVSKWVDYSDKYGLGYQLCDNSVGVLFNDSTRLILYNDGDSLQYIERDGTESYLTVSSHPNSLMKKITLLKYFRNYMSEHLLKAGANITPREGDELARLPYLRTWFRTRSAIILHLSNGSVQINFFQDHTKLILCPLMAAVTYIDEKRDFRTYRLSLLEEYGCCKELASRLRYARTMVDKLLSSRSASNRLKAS

The compounds below were run against Serine/threonine-protein kinase PLK1 (Homo sapiens) (UniProt P53350) (assay: qHTS for Inhibitors of PLK1-PDB (polo-like kinase 1 - polo-box domain): Primary Screen). Settings: Plk1 PBD binding of FITC phosphopeptide, fluorescence polarization.
Further: nearly all actives have a fitted effect of over 65% in size.
On the % scale 0 is the no-effect control and ±100 the full control effect; potency means the concentration at half of the fitted maximal effect.
Wherever max response, negative = inhibition is given: series mostly up to about 57 µM.

Row | Structure (SMILES) | Potency | max response, negative = inhibition
1 | Cc1cccc2c1N(CCCOc1ccc(C(C)(C)C)cc1)C(=O)C2=O | inconclusive: 18.9 µM [inhibitor, partial curve] | 
2 | COc1ccc(C(=O)n2cnc(N)n2)cc1 | inconclusive: 21.2 µM [inhibitor, single point] | 
3 | O=C(/C=C/c1ccccc1Cl)N1CCOCC1 |  | inactive: 5.49%
4 | CCCCN1C(=O)C(O)(CC(=O)c2ccccc2OC)c2ccccc21 (stereo not drawn) |  | inactive: -11.8%
5 | C=CCNC(=S)NNc1nc2c(c(=O)[nH]1)C1(CCCC1)Cc1ccccc1-2 | inconclusive: 29.9 µM [inhibitor, partial curve] | 
6 | COc1ccc(C(=NNc2ccccc2C(=O)O)c2ccc(OC)cc2)cc1 | inconclusive: 23.8 µM [inhibitor, single point] | 
7 | CCOC(=O)c1cc(C(C)=O)c(=O)n(C)c1N | inconclusive: 21.2 µM [inhibitor, partial curve, poor fit] | 
8 | Cc1cc(NC(=O)CCC(=O)N(Cc2ccco2)C2(C(=O)NC3CCCCC3)CCN(C)CC2)no1 |  | inactive: -2.45%
9 | CSc1nc(Cl)cc(N(CCO)CCO)n1 | inconclusive: 13.4 µM [inhibitor, partial curve] | 
10 | Cc1ccc(NC(=S)N(Cc2ccc(Br)cc2)Cc2ccc(C(=O)O)cc2)cc1C | inconclusive: 33.6 µM [inhibitor, single point] | 
11 | COc1ccc(CNC(=O)CSc2ccsc2[N+](=O)[O-])cc1 | inconclusive: 26.7 µM [inhibitor, partial curve] | 
12 | Cc1ccc(NC2CCCN(C(=O)CSc3ccccn3)C2)cc1C (stereo not drawn) | active: 23.8 µM | 
13 | CC(=O)c1ccc(NC(=O)Nc2ccc3c(c2)N(C)C(=O)CS3)cc1 | inconclusive: 16.8 µM [inhibitor, partial curve] | 
14 | Cc1cc(NC(=O)CCC2CCCC2)no1 | inconclusive: 26.7 µM [inhibitor, single point] | 
15 | Cc1[nH]c(=S)c(C#N)c(C)c1CCC#N | inconclusive: 26.7 µM [inhibitor, partial curve] | 
16 | COc1ccc(-c2nc3c(C)cc(Br)cn3c2CC(C)(C)C)cc1OC |  | inactive: -1.52%
17 | O=C(Cn1nc(Cl)nc1Cl)c1ccc2c(c1)OCCO2 | active: 11.9 µM | 
18 | Cc1cccc(C(=O)Nc2cccc3cccnc23)c1 |  | inactive: 1.13%
19 | O=C(Nc1ccccc1C(=O)Nc1ccccc1C(=O)O)c1ccccc1 |  | inconclusive: -30.8% [inhibitor]
20 | N#Cc1c(SCc2c(Cl)cccc2Cl)nc(N)[nH]c1=S | active: 29.9 µM | 
21 | CC(C)N(Cc1ccccc1)C(=O)CN1C(=O)COc2ccc(S(=O)(=O)N3CCCCCC3)cc21 | inconclusive: 21.2 µM [inhibitor, single point] | 
22 | COc1ccc(-c2cnc3c(NC(C)=O)cc(-c4ccsc4)cn23)cc1OC | active: 23.8 µM | 
23 | O=S(=O)(Nc1nc2ccccc2nc1N1CCN(c2ccccc2)CC1)c1ccc(F)cc1 | inconclusive: 26.7 µM [inhibitor, single point] | 
24 | O=C(O)/C=C/C(=O)Nc1ccccc1-c1ccccc1 |  | inactive: -14.2%

Row | Structure (SMILES) | Potency | max response, negative = inhibition
25 | S=c1nc(-c2ccccc2Br)[nH][nH]1 | inconclusive: 21.2 µM [inhibitor, partial curve] | 
26 | CC1(C)CC2(CC(c3ccccc3F)c3ccc(O)c(O)c3O2)NC(=S)N1 (stereo not drawn) | active: 18.9 µM | 
27 | O=C(O)c1cc(S(=O)(=O)N(Cc2ccccc2)c2ccc(Cl)cc2)ccc1Cl | inconclusive: 37.7 µM [inhibitor, single point] | 
28 | Cc1cc(OCC(=O)N2CCc3ccccc3C2)c(C)cc1Br | active: 18.9 µM | 
29 | COc1cccc(/C=N/NC(=O)c2cc3cc([N+](=O)[O-])ccc3s2)c1O | inconclusive: 13.4 µM [inhibitor, partial curve] | 
30 | Cc1ccc(C)n1/N=C1/NC(=O)CS1 | inconclusive: 23.8 µM [inhibitor, partial curve] | 
31 | O=C1C2=C(Nc3ccccc3SC2c2ccco2)c2ccccc21 (stereo not drawn) | inconclusive: 21.2 µM [inhibitor, partial curve] | 
32 | Cc1ccc(N(CC(O)CN2CCCCC2)S(=O)(=O)c2ccccc2)cc1 (stereo not drawn) | inconclusive: 11.9 µM [inhibitor, partial curve] | 
33 | Nc1ccc2nc3c(=O)[nH]c(=S)[nH]c3nc2c1 | active: 2.67 µM | 
34 | COc1cc(C(=O)Nc2ccc3c(c2)C(=O)c2ccccc2C3=O)cc(OC)c1OC |  | inactive: 3.27%
35 | CC(=O)Nc1cc(-c2ccc(C(=O)N3CCOCC3)cc2)cn2c(-c3ccccc3)cnc12 | inconclusive: 26.7 µM [inhibitor, partial curve] | 
36 | COc1ccc(CCn2c(-n3nc(C)cc3C)nc3c2c(=O)[nH]c(=O)n3C)cc1 | active: 2.99 µM | 
37 | O=S(=O)(NCCN1CCOCC1)c1cccs1 |  | inactive: 1.84%
38 | Cc1ccccc1/C=N/n1c(C2CCCCC2)n[nH]c1=S |  | inactive: -9.45%
39 | CC(Sc1nnc(C2CC2)n1C1CC1)C(=O)NC1(C#N)CCCCC1 (stereo not drawn) |  | inactive: -21.1%
40 | O=C(c1ccco1)N1CCN(C(c2ccccn2)c2nnnn2C2CCCC2)CC1 (stereo not drawn) |  | inactive: -15.2%
41 | CCN(CC)S(=O)(=O)c1cccc(-c2csc(C)n2)c1 |  | inactive: -7.98%
42 | Cc1nc2cc(-c3ccccc3)sc2c(=O)n1N |  | inactive: 1.2%
43 | COc1cc(C(=O)N/N=C(\C)c2ccc(NC(=O)Cc3ccccc3)cc2)ccc1O |  | inactive: -8.39%
44 | O=S(=O)(c1cccc(C(F)(F)F)c1)N1CCC(c2cc(-c3cccc4ccccc34)n[nH]2)CC1 | active: 18.9 µM | 
45 | CSc1nc(-c2ccc(Cl)cc2Cl)[nH]c(=O)c1C#N | inconclusive: 23.8 µM [inhibitor, single point] | 
46 | COC(=O)c1nn(-c2ccccc2)c(=O)cc1O | inconclusive: 26.7 µM [inhibitor, single point] | 
47 | O=C(CSc1nnc(-c2ccccc2)c(-c2ccccc2)n1)NC1CCS(=O)(=O)C1 (stereo not drawn) | inconclusive: 26.7 µM [inhibitor, single point] | 
48 | Cn1cccc1/C=N/NC(=O)C12CC3CC(CC(C3)C1)C2 |  | inactive: -0.99%

Molecules shown so far that contain a tert-butyl group (2):
Row | Structure (SMILES) | Potency | max response, negative = inhibition
1 | Cc1cccc2c1N(CCCOc1ccc(C(C)(C)C)cc1)C(=O)C2=O | inconclusive: 18.9 µM [inhibitor, partial curve] | 
16 | COc1ccc(-c2nc3c(C)cc(Br)cn3c2CC(C)(C)C)cc1OC |  | inactive: -1.52%
